Experimental data published in the supplement of paper PMC8728848.
The list shows a part of the results.

Key:
Experiment in all cases: glycan array binding signal (z-score within array); higher = stronger binding
Conditions in all cases: glycan notation: IUPAC condensed, linker removed
Kdn(a2-3)Gal(b1-4)Glc = target: Kdn(a2-3)Gal(b1-4)Glc
How it was run: (§1)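 From the Consortium for Functional Glycomics database, 3228 arrays were curated, keeping only those whose protein sequence was available. Binding is given as a within-array Z-score averaged across arrays sharing a protein sequence and across linkers. Negative Z-scores can be read as non-binding.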

Kdn(a2-3)Gal(b1-4)GlcNAc = target: Kdn(a2-3)Gal(b1-4)GlcNAc
How it was run: as §1

[1] = target: Kdn(a2-3)Gal(b1-4)[Fuc(a1-3)]GlcNAc
How it was run: as §1

Kdn(a2-6)Gal(b1-4)GlcNAc = target: Kdn(a2-6)Gal(b1-4)GlcNAc
How it was run: as §1

[2] = target: Man(a1-2)Man(a1-2)Man(a1-3)Man
How it was run: as §1

[3] = target: Man(a1-2)Man(a1-2)Man(a1-6)[Man(a1-3)]Man
How it was run: as §1

Man(a1-2)Man(a1-3)Man = target: Man(a1-2)Man(a1-3)Man
How it was run: as §1

[4] = target: Man(a1-2)Man(a1-3)[Man(a1-2)Man(a1-6)]Man
How it was run: as §1

[5] = target: Man(a1-2)Man(a1-3)[Man(a1-2)Man(a1-6)]Man(a1-6)[Man(a1-2)Man(a1-2)Man(a1-3)]Man
How it was run: as §1

[6] = target: Man(a1-2)Man(a1-3)[Man(a1-2)Man(a1-6)]Man(a1-6)[Man(a1-2)Man(a1-2)Man(a1-3)]Man(b1-4)GlcNAc(b1-4)GlcNAc
How it was run: as §1

[7] = target: Man(a1-2)Man(a1-3)[Man(a1-6)]Man(a1-6)[Man(a1-2)Man(a1-3)]Man(b1-4)GlcNAc(b1-4)GlcNAc
How it was run: as §1

[8] = target: Man(a1-2)Man(a1-6)[Man(a1-3)]Man(a1-6)[Man(a1-2)Man(a1-2)Man(a1-3)]Man
How it was run: as §1

[9] = target: Man(a1-2)Man(a1-6)[Man(a1-3)]Man(a1-6)[Man(a1-2)Man(a1-2)Man(a1-3)]Man(b1-4)GlcNAc(b1-4)GlcNAc
How it was run: as §1

Man(a1-3)[Man(a1-6)]Man = target: Man(a1-3)[Man(a1-6)]Man
How it was run: as §1

[10] = target: Man(a1-3)[Man(a1-6)]Man(a1-6)[Man(a1-2)Man(a1-3)]Man(b1-4)GlcNAc(b1-4)GlcNAc
How it was run: as §1

[11] = target: Man(a1-3)[Man(a1-6)]Man(a1-6)[Man(a1-3)]Man
How it was run: as §1

[12] = target: Man(a1-3)[Man(a1-6)]Man(a1-6)[Man(a1-3)]Man(b1-4)GlcNAc(b1-4)GlcNAc
How it was run: as §1

[13] = target: Man(a1-3)[Man(a1-6)]Man(b1-4)GlcNAc(b1-4)GlcNAc
How it was run: as §1

[14] = target: Man(a1-3)[Man(a1-6)]Man(b1-4)GlcNAc(b1-4)[Fuc(a1-6)]GlcNAc
How it was run: as §1

Man(a1-6)Man = target: Man(a1-6)Man
How it was run: as §1

Man(b1-4)GlcNAc = target: Man(b1-4)GlcNAc
How it was run: as §1

MurNAc(b1-4)GlcNAc = target: MurNAc(b1-4)GlcNAc
How it was run: as §1

Neu5Ac(a2-3)Gal = target: Neu5Ac(a2-3)Gal
How it was run: as §1

[15] = target: Neu5Ac(a2-3)Gal(b1-3)GalNAc
How it was run: as §1

[16] = target: Neu5Ac(a2-3)Gal(b1-3)GalNAc(b1-3)Gal(a1-4)Gal(b1-4)Glc
How it was run: as §1

[17] = target: Neu5Ac(a2-3)Gal(b1-3)GalNAc(b1-4)[Neu5Ac(a2-3)]Gal(b1-4)Glc
How it was run: as §1

[18] = target: Neu5Ac(a2-3)Gal(b1-3)GalNAc(b1-4)[Neu5Ac(a2-8)Neu5Ac(a2-3)]Gal(b1-4)Glc
How it was run: as §1

[19] = target: Neu5Ac(a2-3)Gal(b1-3)GalNAc6S
How it was run: as §1

[20] = target: Neu5Ac(a2-3)Gal(b1-3)GlcNAc
How it was run: as §1

[21] = target: Neu5Ac(a2-3)Gal(b1-3)GlcNAc(b1-2)Man
How it was run: as §1

[22] = target: Neu5Ac(a2-3)Gal(b1-3)GlcNAc(b1-2)Man(a1-3)[GlcNAc(b1-4)][Neu5Ac(a2-3)Gal(b1-3)GlcNAc(b1-2)Man(a1-6)]Man(b1-4)GlcNAc(b1-4)GlcNAc
How it was run: as §1

[23] = target: Neu5Ac(a2-3)Gal(b1-3)GlcNAc(b1-2)Man(a1-3)[Neu5Ac(a2-3)Gal(b1-3)GlcNAc(b1-2)Man(a1-6)]Man(b1-4)GlcNAc(b1-4)GlcNAc
How it was run: as §1

[24] = target: Neu5Ac(a2-3)Gal(b1-3)GlcNAc(b1-3)Gal(b1-3)GlcNAc
How it was run: as §1

[25] = target: Neu5Ac(a2-3)Gal(b1-3)GlcNAc(b1-3)Gal(b1-4)GlcNAc
How it was run: as §1

[26] = target: Neu5Ac(a2-3)Gal(b1-3)GlcNAc(b1-3)GalNAc
How it was run: as §1

[27] = target: Neu5Ac(a2-3)Gal(b1-3)GlcNAc(b1-4)Gal(b1-4)Glc
How it was run: as §1

[28] = target: Neu5Ac(a2-3)Gal(b1-3)GlcNAc(b1-6)GalNAc
How it was run: as §1

[29] = target: Neu5Ac(a2-3)Gal(b1-3)GlcNAc6S
How it was run: as §1

B1: Gs78B-bfa-542-29-542 (Bacteroides fragilis) (protein)
chain: SEDINRNPLLPTKEDEKMDGVIYGAYLPNLEKSVIPIGTASESTEPVNRYQIGVNLAGDAWAGYMSPRDNKFNGSKNFTNYFMYENWVNYVYSFMVTDVYSPWMQIKRISQDEGTRNDEIYALAQIIKIAALHRTTDMFGPIPYSQVGKGSFKVAYDSQESVYRSFLKELEEAVQTLDDYSNKSKEVLPAFDIVYNGDVNKWMRFANSLMLRLAIRVRFADAGLAKEYAEKAVKHPAGLINSKELAAQMGKGAGLQMKNPLKVINEEYNDTRMGATIYSYLAGYNDARAAVYFVKNNGFKAVRCGIAKSGDAYNGFTRPNVHEDDPLYWMKASEVCFLKAEGALAGFDMGGSAGDFYNAGIRMSFSENGLDNSSAETYLKDSTRKPANYTDTSNGELSANAPSSITIRWENGATEEEKLERIITQKYLAIFPNGQEAWTEWRRTGYPRQIVVAENKTNSAVLIGNGYDLGGVRRLPYPRTEYEQNGENLHNAISQYLGGVDNAATKVWWDKKSK
B1 was tested, and the “glycan array binding signal (z-score)” value (Kdn(a2-3)Gal(b1-4)Glc) was -0.596, the “glycan array binding signal (z-score)” value (Kdn(a2-3)Gal(b1-4)GlcNAc) was 2.84 and the “glycan array binding signal (z-score)” value [1] was 2.32. For the same binder, the “glycan array binding signal (z-score)” value (Kdn(a2-6)Gal(b1-4)GlcNAc) was -0.582, the “glycan array binding signal (z-score)” value [2] was -0.825 and the “glycan array binding signal (z-score)” value [3] was -0.856. The “glycan array binding signal (z-score)” value (Man(a1-2)Man(a1-3)Man) was -0.822, the “glycan array binding signal (z-score)” value [4] was -0.828 and the “glycan array binding signal (z-score)” value [5] was -0.841. The “glycan array binding signal (z-score)” value [6] was -0.64, the “glycan array binding signal (z-score)” value [7] was -0.563 and the “glycan array binding signal (z-score)” value [8] was -0.844. The “glycan array binding signal (z-score)” value [9] was -0.72, the “glycan array binding signal (z-score)” value (Man(a1-3)[Man(a1-6)]Man) was -0.752 and the “glycan array binding signal (z-score)” value [10] was 3.49. The “glycan array binding signal (z-score)” value [11] was -0.801, the “glycan array binding signal (z-score)” value [12] was 1.14 and the “glycan array binding signal (z-score)” value [13] was -0.84. The “glycan array binding signal (z-score)” value [14] was -0.82, the “glycan array binding signal (z-score)” value (Man(a1-6)Man) was -0.431 and the “glycan array binding signal (z-score)” value (Man(b1-4)GlcNAc) was -0.607. For the same binder, the “glycan array binding signal (z-score)” value (MurNAc(b1-4)GlcNAc) was -0.834, the “glycan array binding signal (z-score)” value (Neu5Ac(a2-3)Gal) was -0.842 and the “glycan array binding signal (z-score)” value [15] was -0.752. For the same binder, the “glycan array binding signal (z-score)” value [16] was -0.826, the “glycan array binding signal (z-score)” value [17] was -0.801 and the “glycan array binding signal (z-score)” value [18] was -0.628. For the same binder, the “glycan array binding signal (z-score)” value [19] was -0.818, the “glycan array binding signal (z-score)” value [20] was -0.067 and the “glycan array binding signal (z-score)” value [21] was 1.22. The “glycan array binding signal (z-score)” value [22] was -0.557, the “glycan array binding signal (z-score)” value [23] was 0.433 and the “glycan array binding signal (z-score)” value [24] was -0.818. The “glycan array binding signal (z-score)” value [25] was -0.836, the “glycan array binding signal (z-score)” value [26] was -0.663 and the “glycan array binding signal (z-score)” value [27] was -0.459. For the same binder, the “glycan array binding signal (z-score)” value [28] was 0.6 and the “glycan array binding signal (z-score)” value [29] was -0.829.
